According to patent US20210024455A1 (priority 2018, published 2021):
Construct, isoform or probe ends are uncertain for at least one entry.

Sequences of proteins named here, by UniProt entry; tags and fusion partners are left off. A change or cut given only in a name is not applied to a line headed by its entry.
UniProt Q15554: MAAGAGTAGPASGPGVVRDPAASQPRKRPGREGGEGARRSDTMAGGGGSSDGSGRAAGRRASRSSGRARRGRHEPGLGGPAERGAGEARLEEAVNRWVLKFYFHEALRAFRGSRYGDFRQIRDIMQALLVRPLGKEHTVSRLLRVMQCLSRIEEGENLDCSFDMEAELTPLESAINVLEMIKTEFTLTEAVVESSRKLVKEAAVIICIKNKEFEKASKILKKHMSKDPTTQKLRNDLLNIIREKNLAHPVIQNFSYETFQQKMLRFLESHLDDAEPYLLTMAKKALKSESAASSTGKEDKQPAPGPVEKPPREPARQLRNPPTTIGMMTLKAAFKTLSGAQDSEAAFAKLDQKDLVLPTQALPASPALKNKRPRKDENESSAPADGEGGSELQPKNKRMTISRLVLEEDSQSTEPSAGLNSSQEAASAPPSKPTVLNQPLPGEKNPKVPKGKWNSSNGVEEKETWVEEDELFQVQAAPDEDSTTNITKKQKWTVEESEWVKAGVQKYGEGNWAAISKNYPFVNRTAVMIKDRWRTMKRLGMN

Molecular target: TRF2 (UniProt Q15554)
Assay: binding assay

Sequence	binding result (DSE-FRET strand exchange, binding inhibited by compounds at 50 uM (e.g. #198 62.2%, #224 71.7%), 150 mM KCl, 10 mM HEPES pH 7.9, 25 C, label: 5' FAM on TLM-01)	binding result (DSE-FRET strand exchange with T01F/06, 25 C, TRF2 addition not explicitly described, label: 3' Dabcyl on TLM-02)
AGTTGAGTTAGGGTTAGGGTTAGGGTTAGGGCAGGCGGTGTCTCGCTCGC / GGGAATGGTGTGGTGCCTGCCCTAACCCTAACCCTAACCCTAACTCAACT [T01F/06 (TLM-01-5F/TLM-06)]	binds	–
AGTTGAGTTAGGGTTAGGGTTAGGGTTAGGGCAGGCACCACACCATTCCC / GCGAGCGAGACACCGCCTGCCCTAACCCTAACCCTAACCCTAACTCAACT [T02D/05 (TLM-05/TLM-02-3D)]	–	binds
